Experimental data from publication PMC10296906, “GPCR Binding and JNK3 Activation by Arrestin-3 Have Different Structural Requirements” (Cells, 2023).
Results are given in words; binding and its absence hold for the method and conditions named. In cells and extracts the contact can be indirect. A result given as binding can be weak or reduced; the word gives no strength.

The chains behind the UniProt entries cited, without tags or fusion partners.
UniProt P08172: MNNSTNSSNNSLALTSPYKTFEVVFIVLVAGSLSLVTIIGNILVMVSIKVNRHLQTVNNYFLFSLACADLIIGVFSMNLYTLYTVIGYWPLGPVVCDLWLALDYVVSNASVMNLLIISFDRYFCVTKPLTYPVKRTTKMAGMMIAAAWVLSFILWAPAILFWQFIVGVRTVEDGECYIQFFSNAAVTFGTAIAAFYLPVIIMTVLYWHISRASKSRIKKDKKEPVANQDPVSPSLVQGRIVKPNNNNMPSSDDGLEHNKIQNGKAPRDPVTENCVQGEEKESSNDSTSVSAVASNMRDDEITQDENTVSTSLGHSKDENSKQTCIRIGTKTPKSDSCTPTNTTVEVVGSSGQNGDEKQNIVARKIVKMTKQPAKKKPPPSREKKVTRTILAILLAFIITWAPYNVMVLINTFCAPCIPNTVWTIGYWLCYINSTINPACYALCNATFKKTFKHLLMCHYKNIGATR

The substances below were run against LgBiT-tagged human M2 muscarinic acetylcholine receptor (human) (UniProt P08172) (assay: split reporter; NanoBiT complementation in live HEK293 arrestin-2/3 KO cells: SmBiT-arrestin-3 and receptor-LgBiT co-expressed; luminescence read 20 min with nanoGlo substrate, then agonist added (10 µM isoproterenol for β2AR, 10 µM carbachol for M2R) and read 40 min; signal normalized to the basal signal without agonist).
In the case of “SmBiT-tagged arrestin-3 R170E + K295A (from UniProt P32120-2)”, the binding is reported as “binds”.
For “SmBiT-tagged arrestin-3 D291R + K295E (from UniProt P32120-2)”, the binding was “binds”.
“SmBiT-tagged arrestin-3 R170E + K295E (from UniProt P32120-2)” was tested, and the binding was “binds”.
In the case of “SmBiT-tagged arrestin-3 R170E (from UniProt P32120-2)”, the binding is reported as “binds”.
In the case of “SmBiT-tagged arrestin-3 D291R (from UniProt P32120-2)”, the binding is reported as “binds”.
“SmBiT-tagged arrestin-3 D291R + K295A (from UniProt P32120-2)” was tested, and the binding was “binds”.
For “SmBiT-tagged arrestin-3 3A + K295A (from UniProt P32120-2)”, the binding was “binds”.
“SmBiT-tagged arrestin-3 3A + K295E (from UniProt P32120-2)” was tested, and the binding was “binds”.
